Patent publication EP4360658A1 (Julius-Maximilians-Universität Würzburg, priority 2022, dated 2024)
Strings that start with PEPTIDE1 are HELM notation: dots part the residues, brackets hold end groups and non-standard residues.

Assay: general procedure: Fmoc solid-phase peptide synthesis; 2-Chlorotrityl chloride resin (CTC-Resin); hydroxybenzotriazole / DIC / DIPEA
Conditions: conjugation step, HPLC chromatogram; LC-MS

Row | Substance | purity (crude or final not stated) [%]
1 | PEPTIDE1{[ac].G.S.G.S.G.P.Q.G.I.A.G.A.G.S.G.S.[Den]}$$$$V2.0 | >95
2 | PEPTIDE1{[ac].G.S.G.S.G.P.Q.A.Y.W.G.A.G.S.G.S.[Den]}$$$$V2.0 | >90
3 | Ac-GPQGIAGA-Den | >95

Same assay, conditions: whole synthesis, HPLC chromatogram; LC-MS, scale of the general procedure 100 µmol

Row | Substance | purity (crude or final not stated) [%]
4 | PEPTIDE1{[ac].G.P.L.A.Y.W.G.A}$$$$V2.0 | >95
5 | Ac-GPLELVGA | >95
6 | Ac-GALAIVGA | >95
7 | Ac-GSGS-GPLALVGA-GSGS-Aha | >60
8 | Ac-GALEIVGA | >95
9 | Ac-GPLAIVGA | >95
10 | Ac-GPLEIVGA | >95
11 | PEPTIDE1{[ac].G.P.L.A.L.V.G.A}$$$$V2.0 | >90
12 | Ac-GSGS-GPQGIAGA-GSGS | >95
13 | PEPTIDE1{[ac].G.A.L.E.L.V.G.A}$$$$V2.0 | >95
14 | PEPTIDE1{I.A.G.A.G.S.G.S.[Den]}$$$$V2.0 | >95
15 | PEPTIDE1{[ac].G.A.L.A.L.V.G.A}$$$$V2.0 | >90
16 | PEPTIDE1{[ac].G.P.Q.A.Y.W.G.A}$$$$V2.0 | >90
17 | Ac-GPQGIAGA | >95
18 | PEPTIDE1{[ac].G.P.Q.G.Y.W.G.A}$$$$V2.0 | >95
